PubChem BioAssay AID720505 | Drosophila RNAi Screening Center | 2013
The deposit covers about 20,000 reagents; shown is a random part of those that have a named target and a result. Over the whole deposit, about 2,100 (10%) got an active call. 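Raw plate signals without normalisation; calls rest on control-based scores that were not deposited; replicate 2 separates called from uncalled poorly.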 Names joined by + are all predicted targets of the reagent. Not given: the amount of reagent, the time to read-out.

Screen: 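Genes needed for store-operated calcium entry in fly cells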 (primary screen)
Cells: Drosophila S2R+ cells
Reagents: long dsRNA against Drosophila genes
Challenge: thapsigargin (2 µM) in calcium-free buffer to empty internal stores, then 2 mM calcium added back
Detection: 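Fluo-4 signal in 384-well plates read on a FLIPR after thapsigargin (2 µM, calcium-free) store depletion and 2 mM calcium add-back; unnormalised mean endpoint per well; screen run twice, selected wells retested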
Scale: calcium signal: higher = more calcium entry after store depletion
Active means: 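About 1500 genes called as lowering calcium entry, by varying amounts, judged against per-plate control wells with STIM1 as positive and Rho1 as negative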
Meaning of the calls: active = called as lowering calcium entry; inactive = not called

CG7878 [DRSC16330] | calcium signal, replicate 1: 84.9; calcium signal, replicate 2: 152; Call: inactive
His4:CG33883 + His4:CG33889 + His4:CG33899 + 20 more [DRSC21268] | calcium signal, replicate 1: 56.3; calcium signal, replicate 2: 139; Call: active
Cul4 [DRSC07243] | calcium signal, replicate 1: 129; calcium signal, replicate 2: 147; Call: inactive
CG5888 [DRSC01929] | calcium signal, replicate 1: 111; calcium signal, replicate 2: 145; Call: inactive
CG3703 [DRSC18172] | calcium signal, replicate 1: 101; calcium signal, replicate 2: 145; Call: inactive
CG3703 [DRSC18173] | calcium signal, replicate 1: 104; calcium signal, replicate 2: 151; Call: inactive
CG3703 [DRSC18643] | calcium signal, replicate 1: 118; calcium signal, replicate 2: 156; Call: inactive
Ir75b [DRSC10189] | calcium signal, replicate 1: 169; calcium signal, replicate 2: 197; Call: inactive
Fbp2 [DRSC03327] | calcium signal, replicate 1: 108; calcium signal, replicate 2: 113; Call: inactive
wor [DRSC03637] | calcium signal, replicate 1: 143; calcium signal, replicate 2: 99.4; Call: inactive
CG18128 [DRSC04304] | calcium signal, replicate 1: 141; calcium signal, replicate 2: 180; Call: inactive
CG17199 [DRSC15192] | calcium signal, replicate 1: 141; calcium signal, replicate 2: 125; Call: inactive
flap [DRSC03918] | calcium signal, replicate 1: 76.9; calcium signal, replicate 2: 5708; Call: inactive
flap [DRSC04087] | calcium signal, replicate 1: 114; calcium signal, replicate 2: 150; Call: inactive
CG6912 [DRSC16132] | calcium signal, replicate 1: 141; calcium signal, replicate 2: 177; Call: inactive
Cpr64Aa [DRSC08460] | calcium signal, replicate 1: 71.7; calcium signal, replicate 2: 82.9; Call: inactive
CG12590 [DRSC12216] | calcium signal, replicate 1: 97.1; calcium signal, replicate 2: 90.9; Call: inactive
brm [DRSC11330] | calcium signal, replicate 1: 87.2; calcium signal, replicate 2: 67.5; Call: active
CG13919 [DRSC08388] | calcium signal, replicate 1: 77.2; calcium signal, replicate 2: 89.8; Call: inactive

Records above called active (2):
His4:CG33883 + His4:CG33889 + His4:CG33899 + 20 more [DRSC21268] | calcium signal, replicate 1: 56.3; calcium signal, replicate 2: 139; Call: active
brm [DRSC11330] | calcium signal, replicate 1: 87.2; calcium signal, replicate 2: 67.5; Call: active
